Measured values as given in the supplement of paper PMC10849652.
The list shows a part of the results.

Sequences of proteins named here, by UniProt entry; tags and fusion partners are left off. A change or cut given only in a name is not applied to a line headed by its entry.
UniProt Q9NR46: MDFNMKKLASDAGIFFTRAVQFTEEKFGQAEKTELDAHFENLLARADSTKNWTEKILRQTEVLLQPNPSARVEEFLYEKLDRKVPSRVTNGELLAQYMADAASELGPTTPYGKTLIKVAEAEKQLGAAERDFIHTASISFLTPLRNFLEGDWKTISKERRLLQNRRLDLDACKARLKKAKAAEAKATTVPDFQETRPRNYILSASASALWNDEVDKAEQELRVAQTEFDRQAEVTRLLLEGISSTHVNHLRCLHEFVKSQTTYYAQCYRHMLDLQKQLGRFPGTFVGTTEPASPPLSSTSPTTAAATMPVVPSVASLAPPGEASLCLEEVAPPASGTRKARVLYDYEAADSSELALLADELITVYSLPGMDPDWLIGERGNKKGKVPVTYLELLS
UniProt Q15758: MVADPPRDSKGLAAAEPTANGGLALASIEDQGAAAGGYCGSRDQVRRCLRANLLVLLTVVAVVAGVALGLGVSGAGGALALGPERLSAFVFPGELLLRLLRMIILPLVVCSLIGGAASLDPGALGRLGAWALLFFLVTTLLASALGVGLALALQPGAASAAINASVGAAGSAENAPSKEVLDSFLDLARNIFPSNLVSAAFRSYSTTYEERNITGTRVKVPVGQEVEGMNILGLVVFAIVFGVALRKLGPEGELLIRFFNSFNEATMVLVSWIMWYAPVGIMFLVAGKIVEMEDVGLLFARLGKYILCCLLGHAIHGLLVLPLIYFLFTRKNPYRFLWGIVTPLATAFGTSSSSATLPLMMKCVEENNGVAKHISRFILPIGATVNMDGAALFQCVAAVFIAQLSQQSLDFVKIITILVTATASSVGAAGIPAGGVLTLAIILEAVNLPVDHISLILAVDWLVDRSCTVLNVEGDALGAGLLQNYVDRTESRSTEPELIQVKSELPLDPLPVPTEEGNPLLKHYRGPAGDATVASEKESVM
UniProt O75368: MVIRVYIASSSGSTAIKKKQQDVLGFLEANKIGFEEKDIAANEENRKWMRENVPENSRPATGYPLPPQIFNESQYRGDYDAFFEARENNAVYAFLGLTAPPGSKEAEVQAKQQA
UniProt O43765: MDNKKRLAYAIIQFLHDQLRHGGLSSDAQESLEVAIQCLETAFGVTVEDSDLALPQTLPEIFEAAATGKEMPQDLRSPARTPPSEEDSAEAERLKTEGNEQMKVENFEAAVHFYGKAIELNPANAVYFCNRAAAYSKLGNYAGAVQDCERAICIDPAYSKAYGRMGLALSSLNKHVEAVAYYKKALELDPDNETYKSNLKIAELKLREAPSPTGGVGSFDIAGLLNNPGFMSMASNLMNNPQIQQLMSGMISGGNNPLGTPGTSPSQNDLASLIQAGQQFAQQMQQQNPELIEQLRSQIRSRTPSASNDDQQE
UniProt Q96NB2: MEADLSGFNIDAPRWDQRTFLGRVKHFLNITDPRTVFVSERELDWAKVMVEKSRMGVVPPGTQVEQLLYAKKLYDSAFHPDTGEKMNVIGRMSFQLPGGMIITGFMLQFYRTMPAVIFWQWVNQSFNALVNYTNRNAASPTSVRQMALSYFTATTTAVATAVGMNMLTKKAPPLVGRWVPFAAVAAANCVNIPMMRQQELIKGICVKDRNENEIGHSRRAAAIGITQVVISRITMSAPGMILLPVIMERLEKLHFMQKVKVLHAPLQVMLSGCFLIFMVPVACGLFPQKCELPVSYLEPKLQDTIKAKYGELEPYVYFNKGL
UniProt O95470: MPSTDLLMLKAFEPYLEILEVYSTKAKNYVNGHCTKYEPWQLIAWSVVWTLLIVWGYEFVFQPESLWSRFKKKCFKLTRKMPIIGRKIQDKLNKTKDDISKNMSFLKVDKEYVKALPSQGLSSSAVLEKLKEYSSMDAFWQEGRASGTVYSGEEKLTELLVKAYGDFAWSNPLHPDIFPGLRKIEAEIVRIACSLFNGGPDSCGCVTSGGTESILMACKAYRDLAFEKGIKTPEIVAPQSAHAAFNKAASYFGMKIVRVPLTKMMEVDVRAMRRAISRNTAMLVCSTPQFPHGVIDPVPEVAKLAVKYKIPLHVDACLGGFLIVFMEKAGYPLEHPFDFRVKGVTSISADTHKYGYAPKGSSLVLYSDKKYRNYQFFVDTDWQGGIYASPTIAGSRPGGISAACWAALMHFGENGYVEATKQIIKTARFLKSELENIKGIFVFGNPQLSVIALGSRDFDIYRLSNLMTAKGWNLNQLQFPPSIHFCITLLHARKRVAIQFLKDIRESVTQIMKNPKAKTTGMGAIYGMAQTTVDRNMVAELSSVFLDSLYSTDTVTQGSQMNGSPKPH
UniProt Q9H9B4: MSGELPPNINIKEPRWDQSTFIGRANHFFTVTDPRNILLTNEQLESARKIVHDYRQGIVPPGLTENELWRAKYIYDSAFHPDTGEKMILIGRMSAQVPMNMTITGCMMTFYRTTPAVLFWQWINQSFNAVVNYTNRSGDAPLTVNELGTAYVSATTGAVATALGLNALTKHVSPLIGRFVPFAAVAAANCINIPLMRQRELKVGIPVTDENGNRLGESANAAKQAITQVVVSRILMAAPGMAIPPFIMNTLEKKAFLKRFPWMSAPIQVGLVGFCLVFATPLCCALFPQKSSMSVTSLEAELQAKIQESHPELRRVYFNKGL
UniProt Q8NBJ9: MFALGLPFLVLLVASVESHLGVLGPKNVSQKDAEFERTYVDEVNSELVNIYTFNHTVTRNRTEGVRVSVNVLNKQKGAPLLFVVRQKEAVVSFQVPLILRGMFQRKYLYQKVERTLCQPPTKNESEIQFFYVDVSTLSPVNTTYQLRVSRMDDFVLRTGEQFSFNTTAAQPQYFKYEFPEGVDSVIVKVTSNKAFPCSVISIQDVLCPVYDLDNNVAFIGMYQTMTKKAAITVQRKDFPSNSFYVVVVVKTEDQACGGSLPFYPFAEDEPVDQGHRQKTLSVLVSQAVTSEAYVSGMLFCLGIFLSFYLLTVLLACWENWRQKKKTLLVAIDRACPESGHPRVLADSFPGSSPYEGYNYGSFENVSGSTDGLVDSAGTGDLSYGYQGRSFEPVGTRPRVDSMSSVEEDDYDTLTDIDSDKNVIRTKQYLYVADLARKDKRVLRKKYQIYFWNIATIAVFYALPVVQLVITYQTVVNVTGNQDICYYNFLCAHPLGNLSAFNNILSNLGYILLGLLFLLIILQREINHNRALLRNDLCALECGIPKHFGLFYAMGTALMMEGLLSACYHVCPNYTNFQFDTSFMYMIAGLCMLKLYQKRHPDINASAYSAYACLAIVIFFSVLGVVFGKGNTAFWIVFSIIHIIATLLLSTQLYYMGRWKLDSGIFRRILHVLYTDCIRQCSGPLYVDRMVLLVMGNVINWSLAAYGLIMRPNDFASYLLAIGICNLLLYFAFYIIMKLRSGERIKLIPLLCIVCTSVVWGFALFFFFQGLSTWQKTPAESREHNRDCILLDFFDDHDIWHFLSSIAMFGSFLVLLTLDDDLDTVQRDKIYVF
UniProt P36952: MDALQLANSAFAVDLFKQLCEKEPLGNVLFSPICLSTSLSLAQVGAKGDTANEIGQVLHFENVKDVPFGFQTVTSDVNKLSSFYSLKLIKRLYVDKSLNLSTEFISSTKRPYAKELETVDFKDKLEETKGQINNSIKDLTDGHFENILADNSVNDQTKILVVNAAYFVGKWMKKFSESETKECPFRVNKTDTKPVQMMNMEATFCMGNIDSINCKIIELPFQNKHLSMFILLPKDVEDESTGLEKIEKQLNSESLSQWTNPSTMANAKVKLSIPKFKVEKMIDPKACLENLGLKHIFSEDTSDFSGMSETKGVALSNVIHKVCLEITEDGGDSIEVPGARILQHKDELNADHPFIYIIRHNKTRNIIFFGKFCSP
UniProt Q12874: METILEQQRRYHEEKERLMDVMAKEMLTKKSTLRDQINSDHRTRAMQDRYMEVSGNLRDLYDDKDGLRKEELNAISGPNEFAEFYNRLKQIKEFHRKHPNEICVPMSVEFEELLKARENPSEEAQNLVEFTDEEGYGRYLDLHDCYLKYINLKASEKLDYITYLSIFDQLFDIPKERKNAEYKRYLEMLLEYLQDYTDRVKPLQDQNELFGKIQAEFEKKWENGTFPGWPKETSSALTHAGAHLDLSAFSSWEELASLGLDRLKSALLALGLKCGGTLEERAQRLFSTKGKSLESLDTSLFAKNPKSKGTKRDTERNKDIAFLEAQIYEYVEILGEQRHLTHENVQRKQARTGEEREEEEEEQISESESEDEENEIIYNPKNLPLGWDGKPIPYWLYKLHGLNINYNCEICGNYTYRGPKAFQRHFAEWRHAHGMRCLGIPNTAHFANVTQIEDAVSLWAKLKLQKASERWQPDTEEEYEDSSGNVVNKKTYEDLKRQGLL
UniProt P63208, whole entry, looked up: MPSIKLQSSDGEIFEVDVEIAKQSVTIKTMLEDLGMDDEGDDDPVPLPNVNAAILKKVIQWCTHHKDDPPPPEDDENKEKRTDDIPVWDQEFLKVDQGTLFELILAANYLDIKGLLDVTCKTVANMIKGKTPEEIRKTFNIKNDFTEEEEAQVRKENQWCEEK
UniProt Q99574: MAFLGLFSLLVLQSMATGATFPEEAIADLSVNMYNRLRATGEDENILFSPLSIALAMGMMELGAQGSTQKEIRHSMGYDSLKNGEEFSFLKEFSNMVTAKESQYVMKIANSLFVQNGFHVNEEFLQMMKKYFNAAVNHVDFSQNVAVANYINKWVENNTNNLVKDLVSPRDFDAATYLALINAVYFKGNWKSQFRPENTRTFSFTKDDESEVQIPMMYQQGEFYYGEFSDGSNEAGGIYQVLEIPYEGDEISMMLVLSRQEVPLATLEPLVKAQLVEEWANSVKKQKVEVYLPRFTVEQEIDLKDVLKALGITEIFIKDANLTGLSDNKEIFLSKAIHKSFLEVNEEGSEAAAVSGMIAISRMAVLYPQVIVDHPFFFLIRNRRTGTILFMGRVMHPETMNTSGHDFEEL
UniProt Q01105, whole entry, looked up: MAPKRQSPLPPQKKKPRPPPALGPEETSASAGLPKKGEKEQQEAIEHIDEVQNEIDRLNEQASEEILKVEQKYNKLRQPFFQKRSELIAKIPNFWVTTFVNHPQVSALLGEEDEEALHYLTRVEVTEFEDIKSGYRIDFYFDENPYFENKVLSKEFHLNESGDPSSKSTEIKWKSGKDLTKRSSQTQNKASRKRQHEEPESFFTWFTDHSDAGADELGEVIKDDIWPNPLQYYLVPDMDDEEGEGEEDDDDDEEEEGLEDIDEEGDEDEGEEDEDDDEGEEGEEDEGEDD
UniProt Q99963: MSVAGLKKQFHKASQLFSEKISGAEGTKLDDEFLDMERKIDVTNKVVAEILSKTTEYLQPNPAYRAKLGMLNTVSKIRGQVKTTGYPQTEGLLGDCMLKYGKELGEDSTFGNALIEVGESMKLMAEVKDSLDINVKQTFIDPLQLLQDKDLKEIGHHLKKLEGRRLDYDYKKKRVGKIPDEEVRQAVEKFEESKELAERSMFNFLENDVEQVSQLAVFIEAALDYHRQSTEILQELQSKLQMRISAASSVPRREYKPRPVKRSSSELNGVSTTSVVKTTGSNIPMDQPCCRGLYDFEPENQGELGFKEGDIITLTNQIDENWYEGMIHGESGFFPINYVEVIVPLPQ
UniProt Q0GE19: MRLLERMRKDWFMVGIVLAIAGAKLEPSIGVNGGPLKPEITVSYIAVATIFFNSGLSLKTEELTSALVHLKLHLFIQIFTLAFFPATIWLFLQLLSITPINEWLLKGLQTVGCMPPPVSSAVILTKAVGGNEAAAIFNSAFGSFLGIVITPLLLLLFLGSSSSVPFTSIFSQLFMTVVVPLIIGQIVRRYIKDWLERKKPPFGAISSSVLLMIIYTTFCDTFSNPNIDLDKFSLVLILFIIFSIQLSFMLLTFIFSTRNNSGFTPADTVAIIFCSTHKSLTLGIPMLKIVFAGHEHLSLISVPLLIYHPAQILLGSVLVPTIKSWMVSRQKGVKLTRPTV
UniProt Q96B97, whole entry, looked up: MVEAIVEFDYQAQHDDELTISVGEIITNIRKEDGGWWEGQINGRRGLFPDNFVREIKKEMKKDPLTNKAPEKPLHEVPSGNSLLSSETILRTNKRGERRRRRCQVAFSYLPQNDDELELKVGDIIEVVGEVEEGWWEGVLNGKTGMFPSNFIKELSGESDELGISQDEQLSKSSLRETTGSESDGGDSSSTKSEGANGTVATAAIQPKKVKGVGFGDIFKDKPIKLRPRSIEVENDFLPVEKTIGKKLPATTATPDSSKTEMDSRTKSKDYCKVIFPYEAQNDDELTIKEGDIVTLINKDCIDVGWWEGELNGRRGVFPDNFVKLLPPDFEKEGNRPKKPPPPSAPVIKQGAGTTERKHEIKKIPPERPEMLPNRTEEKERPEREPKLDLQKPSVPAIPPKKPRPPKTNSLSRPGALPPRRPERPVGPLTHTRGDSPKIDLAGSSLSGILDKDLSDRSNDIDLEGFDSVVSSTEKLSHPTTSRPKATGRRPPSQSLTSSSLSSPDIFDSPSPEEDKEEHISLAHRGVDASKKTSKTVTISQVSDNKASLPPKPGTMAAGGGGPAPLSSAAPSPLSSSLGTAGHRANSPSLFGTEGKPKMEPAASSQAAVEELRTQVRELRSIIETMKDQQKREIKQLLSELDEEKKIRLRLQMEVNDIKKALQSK

How the values were obtained:
Assay in all cases: log2 fold change, soluble protein after heating vs DMSO (PISA); higher = thermal stabilisation; K562 lysate, 10 uM; active = over 0.2 and 3.5 SD of the protein, either way, in both replicates (recomputed)
lapatinib = compound: CS(=O)(=O)CCNCc1ccc(-c2ccc3ncnc(Nc4ccc(OCc5cccc(F)c5)c(Cl)c4)c3c2)o1 [lapatinib]
Procedure, shortened: (§1)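 Following dounce homogenisation of K562 pellets in PBS pH 7.4 with 1 mM MgCl2, crude extract at 1 mg/mL protein was incubated for 30 min with 10 μM compound. Aliquots were then heated for 3 min over 48°C-58°C and pooled, NP-40 was added to 0.5% at 4°C, and soluble protein was recovered as the supernatant at 21,000xg for 90 min. Channel-sum-equalised TMTpro 16plex LC-MS/MS quantified this protein. Each value, from duplicates, is a log-two fold change in thermal stability relative to solvent controls.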

pictilisib = compound: CS(=O)(=O)N1CCN(Cc2cc3nc(-c4cccc5[nH]ncc45)nc(N4CCOCC4)c3s2)CC1 [pictilisib]
Procedure, shortened: as §1

crizotinib = compound: C[C@@H](Oc1cc(-c2cnn(C3CCNCC3)c2)cnc1N)c1c(Cl)ccc(F)c1Cl [crizotinib]
Procedure, shortened: as §1

[1] = compound: C[C@H](C1=CC=C(C=C1)C(=O)NC2=C3C=CNC3=NC=C2)N
Procedure, shortened: as §1

duvelisib = compound: C[C@H](Nc1ncnc2nc[nH]c12)c1cc2cccc(Cl)c2c(=O)n1-c1ccccc1 [duvelisib]
Procedure, shortened: as §1

gandotinib = compound: Cc1cc(Nc2cc(CN3CCOCC3)c3nc(C)c(Cc4ccc(Cl)cc4F)n3n2)n[nH]1 [gandotinib]
Procedure, shortened: as §1

tozasertib = compound: Cc1cc(Nc2cc(N3CCN(C)CC3)nc(Sc3ccc(NC(=O)C4CC4)cc3)n2)n[nH]1 [tozasertib]
Procedure, shortened: as §1

doramapimod = compound: Cc1ccc(-n2nc(C(C)(C)C)cc2NC(=O)Nc2ccc(OCCN3CCOCC3)c3ccccc23)cc1 [doramapimod]
Procedure, shortened: as §1

bafetinib = compound: Cc1ccc(NC(=O)c2ccc(CN3CC[C@H](N(C)C)C3)c(C(F)(F)F)c2)cc1Nc1nccc(-c2cncnc2)n1 [bafetinib]
Procedure, shortened: as §1

[2] = compound: Cc1cccc(CC(=O)N2CCc3c2ccc(-c2cn(C)c4ncnc(N)c24)c3F)n1
Procedure, shortened: as §1

| Target | log2 fold change (lapatinib) | log2 fold change (pictilisib) | log2 fold change (crizotinib) | log2 fold change [1] | log2 fold change (duvelisib) | log2 fold change (gandotinib) | log2 fold change (tozasertib) | log2 fold change (doramapimod) | log2 fold change (bafetinib) | log2 fold change [2] |
| --- | --- | --- | --- | --- | --- | --- | --- | --- | --- | --- |
| SH3GLB2 (UniProt Q9NR46) | inactive: 0.095 | inactive: 0.02 | inactive: -0.009 | inactive: 0.005 | inactive: -0.017 | inactive: 0.027 | inactive: 0.029 | inactive: 0.049 | inactive: -0.054 | inactive: -0.006 |
| SGO1 (UniProt Q5FBB7) | inactive: 0.035 | inactive: -0.03 | inactive: -0.063 | inactive: -0.051 | inactive: -0.019 | inactive: 0.016 | inactive: 0.026 | inactive: 0.031 | inactive: 0.018 | inactive: 0.064 |
| SERINC3 (UniProt Q13530) | inactive: -0.052 | inactive: -0.028 | inactive: -0.07 | active: -0.38 | inactive: -0.001 | inactive: 0.16 | inactive: -0.012 | inactive: 0.03 | inactive: -0.014 | inactive: 0.075 |
| SLC1A5 (UniProt Q15758) | inactive: 0.008 | inactive: 0.036 | inactive: 0.017 | inactive: -0.13 | inactive: 0.012 | inactive: 0.054 | inactive: -0.029 | inactive: -0.022 | inactive: 0.02 | inactive: 0.047 |
| SHKBP1 (UniProt Q8TBC3) | inactive: -0.027 | inactive: -0.045 | inactive: -0.009 | inactive: -0.045 | inactive: 0.055 | inactive: 0.034 | inactive: -0.009 | inactive: 0.005 | inactive: -0.04 | inactive: 0.055 |
| SETD3 (UniProt Q86TU7) | inactive: 0.031 | inactive: -0.021 | inactive: -0.016 | inactive: -0.001 | inactive: 0.026 | inactive: -0.055 | inactive: 0.015 | inactive: 0.008 | inactive: -0.036 | inactive: 0.019 |
| SH3BGRL (UniProt O75368) | inactive: 0.008 | inactive: 0.022 | inactive: 0.003 | inactive: 0.085 | inactive: -0.003 | inactive: -0.012 | inactive: 0.008 | inactive: 0.003 | inactive: 0.011 | inactive: -0.034 |
| SHOC2 (UniProt Q9UQ13) | inactive: 0.021 | inactive: -0.032 | inactive: 0.001 | inactive: -0.142 | inactive: -0.003 | inactive: 0.029 | inactive: -0.091 | inactive: -0.001 | inactive: 0.023 | inactive: 0.079 |
| SGTA (UniProt O43765) | inactive: 0.008 | inactive: -0.027 | inactive: 0.01 | inactive: 0.026 | inactive: 0.016 | inactive: 0.007 | inactive: 0.002 | inactive: -0.009 | inactive: 0.03 | inactive: -0.045 |
| SETDB1 (UniProt Q15047) | inactive: -0.066 | inactive: -0.009 | inactive: 0.014 | inactive: -0.123 | inactive: 0.007 | inactive: 0 | inactive: -0.015 | inactive: 0.015 | inactive: -0.065 | inactive: 0.053 |
| SFXN2 (UniProt Q96NB2) | inactive: -0.038 | inactive: 0.047 | inactive: -0.065 | inactive: 0.073 | inactive: 0.051 | inactive: -0.101 | inactive: 0.031 | inactive: -0.043 | inactive: -0.072 | inactive: 0.05 |
| SGPL1 (UniProt O95470) | inactive: 0.005 | inactive: -0.061 | inactive: -0.066 | inactive: -0.055 | inactive: 0.012 | inactive: 0.141 | inactive: -0.095 | inactive: 0.025 | inactive: -0.019 | inactive: 0.008 |
| SLC19A1 (UniProt P41440) | inactive: -0.055 | inactive: 0.005 | inactive: -0.002 | active: -0.203 | inactive: -0.037 | inactive: 0.148 | inactive: -0.021 | inactive: 0.004 | inactive: -0.053 | inactive: 0.07 |
| SFXN1 (UniProt Q9H9B4) | inactive: -0.08 | inactive: -0.011 | inactive: -0.047 | inactive: 0.001 | inactive: -0.007 | inactive: -0.127 | inactive: -0.003 | inactive: 0 | inactive: -0.042 | inactive: 0.077 |
| SIDT2 isoform 2 (UniProt Q8NBJ9) | inactive: 0.027 | inactive: -0.017 | inactive: -0.027 | inactive: 0.039 | inactive: 0.042 | inactive: -0.009 | inactive: -0.131 | inactive: -0.036 | inactive: 0.028 | inactive: -0.081 |
| SF3A1 (UniProt Q15459) | inactive: 0.003 | inactive: 0.004 | inactive: 0.003 | inactive: -0.077 | inactive: -0.006 | inactive: 0.044 | inactive: -0.001 | inactive: 0.012 | inactive: -0.013 | inactive: 0.079 |
| SERPINB5 (UniProt P36952) | inactive: 0.036 | inactive: 0.777 | inactive: -0.05 | inactive: 0 | inactive: -0.274 | inactive: 0.241 |  | inactive: -0.015 | inactive: -0.021 | inactive: -0.199 |
| SERPINC1 (UniProt P01008) | inactive: 0.011 | inactive: -0.182 | inactive: 0.054 | inactive: -0.164 | inactive: -0.012 | inactive: 0.188 | inactive: 0.049 | inactive: -0.055 | inactive: 0.008 | inactive: 0.093 |
| SGTB (UniProt Q96EQ0) | inactive: -0.009 | inactive: -0.01 | inactive: 0.017 | inactive: 0.106 | inactive: 0.04 | inactive: -0.025 | inactive: 0.051 | inactive: -0.046 | inactive: 0.011 | inactive: -0.079 |
| SF3A3 (UniProt Q12874) | inactive: 0.002 | inactive: 0.026 | inactive: 0.013 | inactive: 0.09 | inactive: 0.005 | inactive: -0.088 | inactive: -0.029 | inactive: 0 | inactive: -0.009 | inactive: -0.043 |
| SKP1 (UniProt P63208) | inactive: 0.007 | inactive: -0.04 | inactive: 0.058 | inactive: 0.009 | inactive: 0.02 | inactive: 0.022 | inactive: -0.03 | inactive: 0.013 | inactive: 0.152 | inactive: -0.048 |
| SIN3A (UniProt Q96ST3) | inactive: -0.004 | inactive: -0.028 | inactive: -0.006 | inactive: 0.004 | inactive: 0.012 | inactive: -0.027 | inactive: -0.015 | inactive: 0.004 | inactive: -0.045 | inactive: 0.001 |
| SERPINI1 (UniProt Q99574) | inactive: 0.034 | inactive: -0.061 | inactive: 0.001 | inactive: 0.036 | inactive: 0.007 | inactive: 0.055 | inactive: 0.014 | inactive: -0.042 | inactive: -0.065 | inactive: 0.04 |
| SH3BP5L (UniProt Q7L8J4) | inactive: 0.006 | inactive: -0.004 | inactive: -0.01 | inactive: -0.05 | inactive: 0.001 | inactive: 0.031 | inactive: 0.098 | inactive: -0.044 | inactive: 0.001 | inactive: 0.015 |
| SET isoform 2 (UniProt Q01105) | inactive: 0 | inactive: 0.041 | inactive: 0.006 | inactive: 0.002 | inactive: 0.033 | inactive: 0.046 | inactive: -0.01 | inactive: -0.011 | inactive: 0.002 | inactive: -0.043 |
| SERPINF1 (UniProt P36955) | inactive: -0.044 | inactive: 0.015 | inactive: 0.022 | inactive: 0.076 | inactive: -0.046 | inactive: -0.057 | inactive: 0.018 | inactive: -0.013 | inactive: -0.012 | inactive: -0.063 |
| SH3GL3 isoform 3 (UniProt Q99963) | inactive: -0.07 | inactive: -0.087 | inactive: -0.04 | active: -0.548 | inactive: -0.005 | inactive: 0.326 | inactive: 0.028 | inactive: 0.016 | inactive: -0.147 | active: 0.446 |
| SLC10A7 isoform 1 (UniProt Q0GE19) | inactive: -0.002 | inactive: -0.13 | inactive: -0.05 | inactive: -0.18 | inactive: -0.089 | inactive: 0.096 | inactive: 0.001 | inactive: 0.031 | inactive: -0.095 | inactive: 0.093 |
| SH3KBP1 (UniProt Q96B97) | inactive: -0.041 | inactive: -0.094 | inactive: -0.027 | inactive: -0.034 | inactive: -0.04 | inactive: -0.004 | inactive: 0.034 | inactive: -0.03 | inactive: 0.035 | inactive: 0.044 |
| SHCBP1 (UniProt Q8NEM2) | inactive: 0.061 | inactive: 0.046 | inactive: -0.029 | inactive: -0.043 | inactive: 0.028 | inactive: -0.031 | inactive: 0.059 | inactive: 0.028 | inactive: -0.073 | inactive: 0.078 |

Random excerpt: two entries already listed.

| Target | log2 fold change (lapatinib) | log2 fold change (pictilisib) | log2 fold change (crizotinib) | log2 fold change [1] | log2 fold change (duvelisib) | log2 fold change (gandotinib) | log2 fold change (tozasertib) | log2 fold change (doramapimod) | log2 fold change (bafetinib) | log2 fold change [2] |
| --- | --- | --- | --- | --- | --- | --- | --- | --- | --- | --- |
| SETDB1 (UniProt Q15047) | inactive: -0.066 | inactive: -0.009 | inactive: 0.014 | inactive: -0.123 | inactive: 0.007 | inactive: 0 | inactive: -0.015 | inactive: 0.015 | inactive: -0.065 | inactive: 0.053 |
| SERINC3 (UniProt Q13530) | inactive: -0.052 | inactive: -0.028 | inactive: -0.07 | active: -0.38 | inactive: -0.001 | inactive: 0.16 | inactive: -0.012 | inactive: 0.03 | inactive: -0.014 | inactive: 0.075 |
